Measurements from PMC8570500.
No constants are given. Whether binding was seen depends on the method and setting. Binding seen in cells or lysates may run through a third protein. Some entries that bind do so weakly or less than the wild type. Where a sequence is shown, tags or fusion partners need not be part of it.

The chains behind the UniProt entries cited, without tags or fusion partners. Where a name states a change or a piece, a line headed by the entry shows the natural chain unless it says otherwise. A line that says so, or that is headed by a name, gives the form on record, which may keep a tag or linker.
UniProt Q9Y3Z3: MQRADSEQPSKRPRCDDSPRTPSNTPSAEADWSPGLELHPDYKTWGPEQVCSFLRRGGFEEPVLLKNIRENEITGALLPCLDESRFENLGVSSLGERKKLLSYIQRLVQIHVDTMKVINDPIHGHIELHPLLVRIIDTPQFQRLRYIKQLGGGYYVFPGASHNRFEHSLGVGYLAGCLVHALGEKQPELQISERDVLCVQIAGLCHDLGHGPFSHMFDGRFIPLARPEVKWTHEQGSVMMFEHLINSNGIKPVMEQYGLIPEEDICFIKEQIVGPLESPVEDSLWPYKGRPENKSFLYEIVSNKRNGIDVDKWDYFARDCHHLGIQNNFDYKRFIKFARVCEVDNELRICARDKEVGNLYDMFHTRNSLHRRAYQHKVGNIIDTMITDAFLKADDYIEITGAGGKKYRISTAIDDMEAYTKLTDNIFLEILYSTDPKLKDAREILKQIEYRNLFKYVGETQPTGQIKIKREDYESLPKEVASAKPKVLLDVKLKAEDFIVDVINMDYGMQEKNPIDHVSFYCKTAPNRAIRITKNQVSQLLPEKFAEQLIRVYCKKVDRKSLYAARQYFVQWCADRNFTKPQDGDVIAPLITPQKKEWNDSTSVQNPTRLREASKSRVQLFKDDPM
TASOR-Flag (TASOR short isoform, 1512 amino-acids) (Q9UK61, form named): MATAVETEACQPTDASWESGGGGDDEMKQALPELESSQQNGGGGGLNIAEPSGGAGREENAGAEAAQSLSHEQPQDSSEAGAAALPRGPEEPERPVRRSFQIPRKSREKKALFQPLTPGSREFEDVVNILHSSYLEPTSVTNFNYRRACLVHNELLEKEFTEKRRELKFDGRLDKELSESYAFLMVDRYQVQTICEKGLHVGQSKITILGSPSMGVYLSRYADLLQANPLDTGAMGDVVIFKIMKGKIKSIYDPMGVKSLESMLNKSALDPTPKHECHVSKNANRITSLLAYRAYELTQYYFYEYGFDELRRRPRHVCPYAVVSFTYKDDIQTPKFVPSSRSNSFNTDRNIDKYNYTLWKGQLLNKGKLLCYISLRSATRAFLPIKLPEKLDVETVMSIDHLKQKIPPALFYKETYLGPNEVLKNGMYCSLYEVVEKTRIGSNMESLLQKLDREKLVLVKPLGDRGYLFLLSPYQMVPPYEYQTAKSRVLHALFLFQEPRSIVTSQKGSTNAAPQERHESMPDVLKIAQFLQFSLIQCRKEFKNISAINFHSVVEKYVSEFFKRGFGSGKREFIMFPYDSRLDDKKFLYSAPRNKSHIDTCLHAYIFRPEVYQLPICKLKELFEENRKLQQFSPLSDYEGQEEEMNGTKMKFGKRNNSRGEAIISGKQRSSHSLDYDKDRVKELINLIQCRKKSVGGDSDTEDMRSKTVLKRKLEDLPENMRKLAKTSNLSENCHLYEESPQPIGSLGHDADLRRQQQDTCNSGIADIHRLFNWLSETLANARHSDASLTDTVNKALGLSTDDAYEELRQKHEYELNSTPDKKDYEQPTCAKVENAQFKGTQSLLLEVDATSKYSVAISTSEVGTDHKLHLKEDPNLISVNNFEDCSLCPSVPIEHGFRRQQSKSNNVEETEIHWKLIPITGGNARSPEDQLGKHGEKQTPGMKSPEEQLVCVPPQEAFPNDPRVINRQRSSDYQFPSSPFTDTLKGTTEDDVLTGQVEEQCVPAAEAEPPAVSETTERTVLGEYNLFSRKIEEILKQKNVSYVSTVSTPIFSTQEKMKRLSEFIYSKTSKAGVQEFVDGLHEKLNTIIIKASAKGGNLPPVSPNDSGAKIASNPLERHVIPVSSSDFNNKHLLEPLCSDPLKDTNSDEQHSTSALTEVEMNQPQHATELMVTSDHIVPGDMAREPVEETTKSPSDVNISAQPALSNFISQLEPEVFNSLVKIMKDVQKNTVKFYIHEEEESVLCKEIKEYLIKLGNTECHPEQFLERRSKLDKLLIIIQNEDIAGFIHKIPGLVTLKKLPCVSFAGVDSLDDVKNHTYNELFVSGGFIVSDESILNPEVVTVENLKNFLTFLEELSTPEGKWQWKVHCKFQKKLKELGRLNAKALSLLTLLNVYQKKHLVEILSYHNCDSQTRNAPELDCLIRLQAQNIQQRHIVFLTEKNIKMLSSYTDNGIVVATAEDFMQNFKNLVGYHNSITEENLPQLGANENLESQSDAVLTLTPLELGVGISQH
TASOR-ΔPARP-Flag (TASOR short isoform deleted of its PARP-like domain, 106–319 aa) (Q9UK61, form named): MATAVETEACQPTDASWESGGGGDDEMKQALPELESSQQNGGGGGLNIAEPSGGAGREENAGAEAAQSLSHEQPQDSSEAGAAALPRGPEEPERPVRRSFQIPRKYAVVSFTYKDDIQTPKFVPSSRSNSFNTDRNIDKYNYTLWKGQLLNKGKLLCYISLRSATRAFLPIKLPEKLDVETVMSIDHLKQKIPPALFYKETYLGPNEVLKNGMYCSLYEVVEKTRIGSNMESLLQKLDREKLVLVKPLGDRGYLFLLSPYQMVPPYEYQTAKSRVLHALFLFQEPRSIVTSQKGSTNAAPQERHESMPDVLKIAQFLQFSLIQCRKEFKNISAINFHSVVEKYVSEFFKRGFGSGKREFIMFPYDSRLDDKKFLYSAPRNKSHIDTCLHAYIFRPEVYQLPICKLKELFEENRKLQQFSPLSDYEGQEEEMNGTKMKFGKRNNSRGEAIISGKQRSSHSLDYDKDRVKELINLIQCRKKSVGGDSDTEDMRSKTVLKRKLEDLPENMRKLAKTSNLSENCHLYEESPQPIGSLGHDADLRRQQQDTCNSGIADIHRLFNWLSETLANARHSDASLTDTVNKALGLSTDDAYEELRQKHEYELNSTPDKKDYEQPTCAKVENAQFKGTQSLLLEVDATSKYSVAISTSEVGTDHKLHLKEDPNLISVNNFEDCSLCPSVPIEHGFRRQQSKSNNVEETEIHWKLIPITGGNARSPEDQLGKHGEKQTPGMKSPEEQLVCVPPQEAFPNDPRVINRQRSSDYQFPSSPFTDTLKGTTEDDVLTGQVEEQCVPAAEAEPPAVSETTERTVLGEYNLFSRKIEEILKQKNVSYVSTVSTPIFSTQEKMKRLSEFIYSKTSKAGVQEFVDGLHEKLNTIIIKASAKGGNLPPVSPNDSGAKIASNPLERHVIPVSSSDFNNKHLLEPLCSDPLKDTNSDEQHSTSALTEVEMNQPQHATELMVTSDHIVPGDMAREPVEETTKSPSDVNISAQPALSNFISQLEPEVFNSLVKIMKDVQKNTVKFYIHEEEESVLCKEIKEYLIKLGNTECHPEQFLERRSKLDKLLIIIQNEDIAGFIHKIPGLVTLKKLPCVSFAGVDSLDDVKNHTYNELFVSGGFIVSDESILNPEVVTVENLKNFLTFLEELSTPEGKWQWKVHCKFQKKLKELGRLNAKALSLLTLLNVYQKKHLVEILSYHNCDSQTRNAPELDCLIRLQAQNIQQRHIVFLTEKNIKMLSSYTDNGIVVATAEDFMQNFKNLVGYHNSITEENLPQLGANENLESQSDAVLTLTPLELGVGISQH

Columns and labels:
SAMHD1-Flag (human) = SAMHD1-Flag (human) (UniProt Q9Y3Z3); experiment: co-IP; anti-Flag immunoprecipitation of SAMHD1-Flag expressed in HeLa cells with or without HA-Vpx WT; endogenous DCAF1 revealed by western blot (Fig 1C)
[1] = biological target: TASOR-Flag (TASOR short isoform, 1512 amino-acids) (UniProt Q9UK61); experiment: co-IP; anti-Flag M2 affinity gel immunoprecipitation of TASOR-Flag (WT or ΔPARP) expressed in HeLa cells with or without HA-Vpx (WT or mutant); same lysis and wash buffers; HA-Vpx, endogenous DCAF1 and endogenous MPP8 revealed by western blot (Figs 1B, 2D, 3E, 5C, S6B)
[2] = biological target: TASOR-ΔPARP-Flag (TASOR short isoform deleted of its PARP-like domain, 106–319 aa) (UniProt Q9UK61); experiment: as above

Measured: binding

B1: HA-Vpx HIV-2.Gh1 WT (protein, UniProt P18045 1-112)
chain: MTDPRERVPPGNSGEETIGEAFEWLDRTIEALNREAVNHLPRELIFQVWQRSWRYWHDDQGMSPSYTKYRYLCLMQKAVFIHFKRGCTCLGGGHGPGGWRSGPPPPPPPGLV
binds: all assays above
